In this assay the test system is UCB derived CD133+ cells. The assay can be described thus: Ex vivo expansion of umbilical cord blood CD133+ cells (flow cytometry, counting beads). The class given is cell-based, human. An excerpt: Human UCB units were collected with written informed pre-consent and ethical approval from Oxford and Berkshire National Research Ethical Committees and studies conducted with approval of the NHSBT research committee. UCB mononuclear cells (MNC) were isolated by density gradient centrifugation on lymphocyte separation medium 1077 (PAA Laboratories, Pasching, Austria; density<1.077 g/ml). CD133+ cells were isolated from the MNC with immunomagnetic beads (Miltenyi Biotec, Germany). After isolation, the cells were cryopreserved in 10% DMSO in FCS (fetal calf serum) and stored at −150° C. in aliquots of 1×10^5 cells/vial. Cells were analysed for the purity of the isolation with flow cytometry on a BD LSR II (BD Biosciences, CA) using CD34-APC, CD133-PE and the appropriate isotype controls (all Miltenyi Biotec). […]
The next day cells were harvested from the plates counted, and seeded into 24 well Nanex plates (Compass Biomedical) or standard tissue culture treated plates at 2500 cells/well in 1 mL basal media (StemSpan ACF with 100 ng/mL SCF, 100 ng/mL FLT3LG and 20 ng/mL TPO) containing an HDAC inhibitor (for most experiments scriptaid was used at a concentration of 1 μM). […]
Cell number was measured using flow cytometry with the aid of counting beads (CountBright beads Life Technologies).

For the compound `Cc1ccc(C(=O)NCCCCCC(=O)Nc2ccccc2N)cc1` [RG2833], where the note is “5 days culture, vs basal media with cytokines, WR1065 added 16-20 h before harvest”, the “fold expansion of total nucleated cells (TNC) compared to cells grown in basal media” value is “increase”. The “fold expansion of HSC compared to cells grown in basal media” value (5 days, result in words, FIG. 7-12) is recorded as “doubled”.

(Values after patent publication US20210379112A1, “STEM CELL THERAPY” (PLASTICELL LIMITED, priority 2018, published 2021).)
